# According to the supplement of paper PMC8728848:
# This is one part of the list.
# Tests used:
# Assay in all cases: glycan array binding signal (z-score within array); higher = stronger binding
# Conditions in all cases: glycan notation: IUPAC condensed, linker removed
# Neu5Ac(a2-8)Neu5Ac = biological target: Neu5Ac(a2-8)Neu5Ac
# Procedure, shortened: (§1)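 Negative Z-scores can be read as non-binding. The Z-score is calculated within each array and then averaged across arrays of one protein sequence at different concentrations or buffers and across linkers. Arrays, 3228 in all, were curated from the Consortium for Functional Glycomics database and kept only where the protein sequence was available.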
# [1] = biological target: Neu5Ac(a2-8)Neu5Ac(a2-3)Gal(b1-4)Glc
# Procedure, shortened: as §1
# [2] = biological target: Neu5Ac(a2-8)Neu5Ac(a2-3)[GalNAc(b1-4)]Gal(b1-4)Glc
# Procedure, shortened: as §1
# [3] = biological target: Neu5Ac(a2-8)Neu5Ac(a2-8)Neu5Ac
# Procedure, shortened: as §1
# [4] = biological target: Neu5Ac(a2-8)Neu5Ac(a2-8)Neu5Ac(a2-3)Gal(b1-4)Glc
# Procedure, shortened: as §1
# [5] = biological target: Neu5Ac(a2-8)Neu5Ac(a2-8)Neu5Ac(a2-3)[GalNAc(b1-4)]Gal(b1-4)Glc
# Procedure, shortened: as §1
# [6] = biological target: Neu5Ac(a2-8)Neu5Ac(a2-8)Neu5Ac(a2-8)Neu5Ac(a2-3)[GalNAc(b1-4)]Gal(b1-4)Glc
# Procedure, shortened: as §1
# [7] = biological target: Neu5Ac(b2-6)Gal(b1-4)GlcNAc
# Procedure, shortened: as §1
# Neu5Ac(b2-6)GalNAc = biological target: Neu5Ac(b2-6)GalNAc
# Procedure, shortened: as §1
# [8] = biological target: Neu5Ac9Ac(a2-3)Gal(b1-3)GlcNAc
# Procedure, shortened: as §1
# [9] = biological target: Neu5Ac9Ac(a2-3)Gal(b1-4)GlcNAc
# Procedure, shortened: as §1
# [10] = biological target: Neu5Ac9Ac(a2-6)Gal(b1-4)GlcNAc
# Procedure, shortened: as §1
# [11] = biological target: Neu5Gc(a2-3)Gal(b1-3)GlcNAc
# Procedure, shortened: as §1
# [12] = biological target: Neu5Gc(a2-3)Gal(b1-3)[Fuc(a1-4)]GlcNAc
# Procedure, shortened: as §1
# Neu5Gc(a2-3)Gal(b1-4)Glc = biological target: Neu5Gc(a2-3)Gal(b1-4)Glc
# Procedure, shortened: as §1
# [13] = biological target: Neu5Gc(a2-3)Gal(b1-4)GlcNAc
# Procedure, shortened: as §1
# [14] = biological target: Neu5Gc(a2-3)Gal(b1-4)[Fuc(a1-3)]GlcNAc
# Procedure, shortened: as §1
# [15] = biological target: Neu5Gc(a2-6)Gal(b1-4)GlcNAc
# Procedure, shortened: as §1
# Neu5Gc(a2-6)GalNAc = biological target: Neu5Gc(a2-6)GalNAc
# Procedure, shortened: as §1
# [16] = biological target: Neu5Gc(b2-6)Gal(b1-4)GlcNAc
# Procedure, shortened: as §1
binder,measurement,setting,value
"PEB1 (Campylobacter jejuni), Q0P9X8 (protein) MVFRKSLLKLAVFALGACVAFSNANAAEGKLESIKSKGQLIVGVKNDVPHYALLDQATGEIKGFEVDVAKLLAKSILGDDKKIKLVAVNAKTRGPLLDNGSVDAVIATFTITPERKRIYNFSEPYYQDAIGLLVLKEKKYKSLADMKGANIGVAQAATTKKAIGEAAKKIGIDVKFSEFPDYPSIKAALDAKRVDAFSVDKSILLGYVDDKSEILPDSFEPQSYGIVTKKDDPAFAKYVDDFVKEHKNEIDALAKKWGL",glycan array binding signal (z-score),Neu5Ac(a2-8)Neu5Ac,0.501
same,glycan array binding signal (z-score),[1],0.514
same,glycan array binding signal (z-score),[2],-1.36
same,glycan array binding signal (z-score),[3],0.952
same,glycan array binding signal (z-score),[4],0.282
same,glycan array binding signal (z-score),[5],-1.2
same,glycan array binding signal (z-score),[6],0.181
same,glycan array binding signal (z-score),[7],-0.019
same,glycan array binding signal (z-score),Neu5Ac(b2-6)GalNAc,-1.3
same,glycan array binding signal (z-score),[8],-0.504
same,glycan array binding signal (z-score),[9],-1.18
same,glycan array binding signal (z-score),[10],0.585
same,glycan array binding signal (z-score),[11],-0.622
same,glycan array binding signal (z-score),[12],-0.646
same,glycan array binding signal (z-score),Neu5Gc(a2-3)Gal(b1-4)Glc,-0.109
same,glycan array binding signal (z-score),[13],0.722
same,glycan array binding signal (z-score),[14],-0.231
same,glycan array binding signal (z-score),[15],0.988
same,glycan array binding signal (z-score),Neu5Gc(a2-6)GalNAc,-0.607
same,glycan array binding signal (z-score),[16],-0.566
